Reference: the supplement of paper PMC10849652
The list shows a part of the results.

Sequences of proteins named here, by UniProt entry; tags and fusion partners are left off. A change or cut given only in a name is not applied to a line headed by its entry.
UniProt P61599, whole entry, looked up: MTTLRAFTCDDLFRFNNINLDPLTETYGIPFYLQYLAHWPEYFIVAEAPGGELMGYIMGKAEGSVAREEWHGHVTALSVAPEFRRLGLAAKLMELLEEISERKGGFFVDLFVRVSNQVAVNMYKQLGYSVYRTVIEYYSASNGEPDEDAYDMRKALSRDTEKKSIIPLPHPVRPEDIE
UniProt Q68D85: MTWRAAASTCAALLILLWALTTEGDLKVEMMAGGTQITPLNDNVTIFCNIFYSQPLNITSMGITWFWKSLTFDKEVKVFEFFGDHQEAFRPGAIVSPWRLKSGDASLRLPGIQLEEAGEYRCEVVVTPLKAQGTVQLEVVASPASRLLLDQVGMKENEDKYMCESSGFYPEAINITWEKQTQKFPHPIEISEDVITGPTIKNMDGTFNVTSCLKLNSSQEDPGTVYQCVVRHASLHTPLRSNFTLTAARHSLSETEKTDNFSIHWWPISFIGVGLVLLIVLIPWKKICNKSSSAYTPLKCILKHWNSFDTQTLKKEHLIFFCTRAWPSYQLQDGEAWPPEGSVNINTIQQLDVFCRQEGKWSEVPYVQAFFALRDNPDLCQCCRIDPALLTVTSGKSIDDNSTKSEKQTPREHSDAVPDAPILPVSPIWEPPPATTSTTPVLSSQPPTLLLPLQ
UniProt O95299, whole entry, looked up: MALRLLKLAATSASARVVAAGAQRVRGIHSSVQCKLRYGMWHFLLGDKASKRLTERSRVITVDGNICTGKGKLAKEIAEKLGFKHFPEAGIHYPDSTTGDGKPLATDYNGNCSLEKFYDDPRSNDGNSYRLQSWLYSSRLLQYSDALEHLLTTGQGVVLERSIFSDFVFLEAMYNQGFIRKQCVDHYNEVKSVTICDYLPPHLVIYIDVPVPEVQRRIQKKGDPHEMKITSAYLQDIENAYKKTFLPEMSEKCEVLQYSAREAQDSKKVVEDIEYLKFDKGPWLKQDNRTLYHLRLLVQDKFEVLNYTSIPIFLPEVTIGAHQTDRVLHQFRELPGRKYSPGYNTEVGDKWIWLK
UniProt E9PAV3, whole entry, looked up: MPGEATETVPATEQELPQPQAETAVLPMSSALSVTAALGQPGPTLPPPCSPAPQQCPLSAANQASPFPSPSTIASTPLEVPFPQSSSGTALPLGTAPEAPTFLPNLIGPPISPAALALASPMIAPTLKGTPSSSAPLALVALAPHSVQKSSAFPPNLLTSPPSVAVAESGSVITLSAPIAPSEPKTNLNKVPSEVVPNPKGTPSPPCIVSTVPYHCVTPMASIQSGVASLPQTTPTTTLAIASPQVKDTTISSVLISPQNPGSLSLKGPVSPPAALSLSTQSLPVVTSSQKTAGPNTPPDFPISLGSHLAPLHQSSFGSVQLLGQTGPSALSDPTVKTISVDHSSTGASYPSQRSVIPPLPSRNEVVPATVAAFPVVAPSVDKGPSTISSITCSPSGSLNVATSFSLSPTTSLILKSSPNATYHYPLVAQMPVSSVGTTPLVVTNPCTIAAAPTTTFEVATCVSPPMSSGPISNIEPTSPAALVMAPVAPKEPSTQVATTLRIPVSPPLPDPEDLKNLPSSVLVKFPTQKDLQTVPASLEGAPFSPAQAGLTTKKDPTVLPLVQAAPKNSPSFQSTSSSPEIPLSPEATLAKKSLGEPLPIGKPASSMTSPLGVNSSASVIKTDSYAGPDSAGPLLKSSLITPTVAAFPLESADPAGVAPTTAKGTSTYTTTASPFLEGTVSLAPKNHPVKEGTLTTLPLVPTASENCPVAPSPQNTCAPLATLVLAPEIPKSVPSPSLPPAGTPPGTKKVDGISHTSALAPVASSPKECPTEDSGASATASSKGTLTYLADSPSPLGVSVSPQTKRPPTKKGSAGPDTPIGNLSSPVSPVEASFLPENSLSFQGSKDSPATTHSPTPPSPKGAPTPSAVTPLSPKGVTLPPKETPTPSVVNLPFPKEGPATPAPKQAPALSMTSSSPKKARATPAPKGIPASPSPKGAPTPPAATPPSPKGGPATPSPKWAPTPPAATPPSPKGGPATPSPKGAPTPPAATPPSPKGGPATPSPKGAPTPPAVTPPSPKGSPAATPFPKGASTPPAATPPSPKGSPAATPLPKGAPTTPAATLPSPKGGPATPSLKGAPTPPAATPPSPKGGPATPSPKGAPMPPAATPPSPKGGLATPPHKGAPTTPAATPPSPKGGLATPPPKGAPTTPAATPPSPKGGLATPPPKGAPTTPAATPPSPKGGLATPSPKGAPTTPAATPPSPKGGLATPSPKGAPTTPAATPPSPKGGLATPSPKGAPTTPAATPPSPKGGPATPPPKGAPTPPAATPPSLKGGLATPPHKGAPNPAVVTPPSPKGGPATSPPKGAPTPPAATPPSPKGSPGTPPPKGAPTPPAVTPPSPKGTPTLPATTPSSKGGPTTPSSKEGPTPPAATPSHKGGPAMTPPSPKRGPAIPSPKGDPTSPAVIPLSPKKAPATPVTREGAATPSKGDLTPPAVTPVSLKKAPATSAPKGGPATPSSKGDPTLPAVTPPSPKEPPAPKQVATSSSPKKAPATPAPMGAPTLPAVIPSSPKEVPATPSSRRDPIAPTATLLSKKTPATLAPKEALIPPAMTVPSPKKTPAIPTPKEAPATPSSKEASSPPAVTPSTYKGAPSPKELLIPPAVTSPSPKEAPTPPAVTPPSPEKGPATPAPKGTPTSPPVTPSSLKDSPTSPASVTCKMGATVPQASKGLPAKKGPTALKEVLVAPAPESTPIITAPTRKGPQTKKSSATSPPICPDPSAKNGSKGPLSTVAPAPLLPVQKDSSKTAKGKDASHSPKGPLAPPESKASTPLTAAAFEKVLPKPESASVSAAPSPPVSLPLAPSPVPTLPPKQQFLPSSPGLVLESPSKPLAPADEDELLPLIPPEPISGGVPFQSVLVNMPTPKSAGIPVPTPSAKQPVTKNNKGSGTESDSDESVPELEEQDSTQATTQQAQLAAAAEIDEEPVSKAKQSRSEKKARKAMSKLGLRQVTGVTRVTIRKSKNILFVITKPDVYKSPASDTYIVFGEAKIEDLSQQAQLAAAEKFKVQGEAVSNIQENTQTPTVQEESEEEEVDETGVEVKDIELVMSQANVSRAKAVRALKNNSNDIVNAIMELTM
UniProt O43639, whole entry, looked up: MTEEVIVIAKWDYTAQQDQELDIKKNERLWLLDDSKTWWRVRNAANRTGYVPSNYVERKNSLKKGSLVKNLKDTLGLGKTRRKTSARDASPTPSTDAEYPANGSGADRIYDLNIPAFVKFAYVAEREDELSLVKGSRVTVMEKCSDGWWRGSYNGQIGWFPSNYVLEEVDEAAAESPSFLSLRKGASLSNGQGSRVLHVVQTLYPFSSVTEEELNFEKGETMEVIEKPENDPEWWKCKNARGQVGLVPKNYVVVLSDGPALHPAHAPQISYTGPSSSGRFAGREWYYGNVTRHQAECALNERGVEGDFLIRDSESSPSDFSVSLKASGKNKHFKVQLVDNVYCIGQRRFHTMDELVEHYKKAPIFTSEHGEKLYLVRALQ
UniProt Q9Y5N5: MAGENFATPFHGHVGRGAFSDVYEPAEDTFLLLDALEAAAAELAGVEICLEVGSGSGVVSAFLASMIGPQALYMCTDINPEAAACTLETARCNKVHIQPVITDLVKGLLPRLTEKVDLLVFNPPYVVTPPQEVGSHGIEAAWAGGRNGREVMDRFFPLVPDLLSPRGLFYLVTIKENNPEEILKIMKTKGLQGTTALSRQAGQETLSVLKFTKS
UniProt P17050: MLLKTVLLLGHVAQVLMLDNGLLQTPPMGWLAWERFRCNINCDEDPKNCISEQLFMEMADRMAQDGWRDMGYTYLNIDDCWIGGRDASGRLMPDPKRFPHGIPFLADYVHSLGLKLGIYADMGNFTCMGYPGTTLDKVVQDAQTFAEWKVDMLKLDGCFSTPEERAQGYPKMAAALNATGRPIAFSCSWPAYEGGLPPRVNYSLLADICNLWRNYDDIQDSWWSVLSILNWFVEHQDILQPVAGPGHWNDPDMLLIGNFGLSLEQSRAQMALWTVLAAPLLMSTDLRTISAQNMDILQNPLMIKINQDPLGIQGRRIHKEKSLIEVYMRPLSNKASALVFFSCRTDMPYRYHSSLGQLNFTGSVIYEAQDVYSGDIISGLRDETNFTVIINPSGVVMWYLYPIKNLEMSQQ
UniProt O43678, whole entry, looked up: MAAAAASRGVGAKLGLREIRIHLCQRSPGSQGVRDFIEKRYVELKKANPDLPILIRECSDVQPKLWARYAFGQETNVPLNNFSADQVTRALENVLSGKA
UniProt P52298: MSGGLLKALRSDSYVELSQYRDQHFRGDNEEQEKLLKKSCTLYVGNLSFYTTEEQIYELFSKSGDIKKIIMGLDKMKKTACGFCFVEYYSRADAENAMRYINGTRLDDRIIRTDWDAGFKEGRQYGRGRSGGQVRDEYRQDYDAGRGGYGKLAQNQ
UniProt Q09161: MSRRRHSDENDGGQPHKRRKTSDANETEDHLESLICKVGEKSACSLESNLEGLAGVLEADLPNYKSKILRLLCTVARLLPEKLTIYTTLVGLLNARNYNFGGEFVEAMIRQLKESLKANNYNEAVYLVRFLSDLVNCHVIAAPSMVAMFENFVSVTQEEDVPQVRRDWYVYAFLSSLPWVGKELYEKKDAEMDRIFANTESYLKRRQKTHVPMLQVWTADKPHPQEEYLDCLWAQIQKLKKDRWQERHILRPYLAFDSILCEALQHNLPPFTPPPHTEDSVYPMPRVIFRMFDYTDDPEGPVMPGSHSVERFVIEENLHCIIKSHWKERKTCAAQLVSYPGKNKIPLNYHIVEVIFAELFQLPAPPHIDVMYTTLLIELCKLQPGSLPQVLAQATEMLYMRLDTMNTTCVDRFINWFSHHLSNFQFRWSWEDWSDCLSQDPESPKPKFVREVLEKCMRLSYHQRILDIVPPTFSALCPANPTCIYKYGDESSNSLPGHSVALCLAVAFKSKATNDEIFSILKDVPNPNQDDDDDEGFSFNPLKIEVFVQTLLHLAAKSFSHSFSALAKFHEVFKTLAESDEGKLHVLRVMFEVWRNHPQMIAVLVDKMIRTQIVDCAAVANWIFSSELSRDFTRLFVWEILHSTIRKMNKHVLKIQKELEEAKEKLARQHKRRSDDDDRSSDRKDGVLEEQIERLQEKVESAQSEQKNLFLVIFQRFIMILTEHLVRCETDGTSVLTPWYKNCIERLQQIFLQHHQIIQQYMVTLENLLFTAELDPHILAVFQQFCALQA
UniProt O75306, whole entry, looked up: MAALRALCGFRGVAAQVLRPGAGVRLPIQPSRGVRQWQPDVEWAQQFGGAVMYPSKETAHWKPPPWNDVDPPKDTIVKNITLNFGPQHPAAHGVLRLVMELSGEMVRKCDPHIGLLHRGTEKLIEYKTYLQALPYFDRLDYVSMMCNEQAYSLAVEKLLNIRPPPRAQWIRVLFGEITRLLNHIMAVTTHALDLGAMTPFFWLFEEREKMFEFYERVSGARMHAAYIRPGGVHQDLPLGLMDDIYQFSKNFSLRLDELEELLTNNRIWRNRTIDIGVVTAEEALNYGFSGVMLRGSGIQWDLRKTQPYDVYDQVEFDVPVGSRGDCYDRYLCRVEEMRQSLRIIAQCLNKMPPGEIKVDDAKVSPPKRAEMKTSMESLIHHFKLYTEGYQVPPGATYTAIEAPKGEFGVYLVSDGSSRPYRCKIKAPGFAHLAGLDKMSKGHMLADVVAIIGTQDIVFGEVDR
UniProt Q14CX7, whole entry, looked up: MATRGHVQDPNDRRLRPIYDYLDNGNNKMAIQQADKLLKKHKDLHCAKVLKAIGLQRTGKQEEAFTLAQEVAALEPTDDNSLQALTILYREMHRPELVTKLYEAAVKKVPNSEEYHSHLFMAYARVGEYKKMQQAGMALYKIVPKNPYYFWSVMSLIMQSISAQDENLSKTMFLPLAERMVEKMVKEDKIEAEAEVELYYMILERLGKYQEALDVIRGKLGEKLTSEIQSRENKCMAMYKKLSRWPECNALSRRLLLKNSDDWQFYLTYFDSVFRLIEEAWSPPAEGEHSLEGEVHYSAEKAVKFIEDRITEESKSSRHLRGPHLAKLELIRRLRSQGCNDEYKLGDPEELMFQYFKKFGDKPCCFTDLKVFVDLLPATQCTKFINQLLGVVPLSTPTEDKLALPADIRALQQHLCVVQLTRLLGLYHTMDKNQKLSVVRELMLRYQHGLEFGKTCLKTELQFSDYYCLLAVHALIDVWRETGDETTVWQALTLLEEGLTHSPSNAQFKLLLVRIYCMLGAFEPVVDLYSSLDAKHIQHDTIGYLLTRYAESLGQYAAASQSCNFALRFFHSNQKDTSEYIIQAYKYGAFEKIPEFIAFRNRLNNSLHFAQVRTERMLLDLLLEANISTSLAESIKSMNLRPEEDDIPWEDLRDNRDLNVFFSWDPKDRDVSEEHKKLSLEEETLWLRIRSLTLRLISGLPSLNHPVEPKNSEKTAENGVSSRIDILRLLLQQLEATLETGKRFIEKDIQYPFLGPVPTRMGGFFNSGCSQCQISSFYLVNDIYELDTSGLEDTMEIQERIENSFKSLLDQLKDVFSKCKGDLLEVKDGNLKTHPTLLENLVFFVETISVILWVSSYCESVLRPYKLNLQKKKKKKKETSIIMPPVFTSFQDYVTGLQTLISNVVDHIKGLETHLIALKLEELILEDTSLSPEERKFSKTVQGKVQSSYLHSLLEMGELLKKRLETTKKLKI

Key:
Assay in all cases: log2 fold change, soluble protein after heating vs DMSO (PISA); higher = thermal stabilisation; K562 cells, 10 uM, 30 min; active = over 0.2 and 3.5 SD of the protein, either way, in both replicates (recomputed)
[1] = compound: CS(=O)(=O)c1ccc(-c2cnc(N)c(C(=O)Nc3ccccc3)n2)cc1
In short: (§1)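 Thermal stability values are relative to control samples and come from duplicates. They are expressed as log2 fold changes. For measurement, K562 cells (2×10^6 cells/mL) received 10 μM compound for 30 min, and aliquots were heated for 3 min over 48°C-58°C, pooled, and extracted at 4°C in PBS with 0.5% NP-40. Soluble protein, the supernatant after 21,000xg for 90 min, was quantified by TMTpro 16plex LC-MS/MS with equalised channel sums.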

crizotinib = compound: C[C@@H](Oc1cc(-c2cnn(C3CCNCC3)c2)cnc1N)c1c(Cl)ccc(F)c1Cl [crizotinib]
In short: as §1

[2] = compound: C[C@@H]1COCCN1C2=NC(=NC(=C2)C3(CC3)S(=O)(=O)C)C4=C5C=CNC5=CC=C4
In short: as §1

[3] = compound: C[C@H](C1=CC=C(C=C1)C(=O)NC2=C3C=CNC3=NC=C2)N
In short: as §1

duvelisib = compound: C[C@H](Nc1ncnc2nc[nH]c12)c1cc2cccc(Cl)c2c(=O)n1-c1ccccc1 [duvelisib]
In short: as §1

gandotinib = compound: Cc1cc(Nc2cc(CN3CCOCC3)c3nc(C)c(Cc4ccc(Cl)cc4F)n3n2)n[nH]1 [gandotinib]
In short: as §1

tozasertib = compound: Cc1cc(Nc2cc(N3CCN(C)CC3)nc(Sc3ccc(NC(=O)C4CC4)cc3)n2)n[nH]1 [tozasertib]
In short: as §1

[4] = compound: Cc1cc(SCc2sc(-c3ccc(C(F)(F)F)cc3)nc2C)ccc1OCC(=O)O
In short: as §1

doramapimod = compound: Cc1ccc(-n2nc(C(C)(C)C)cc2NC(=O)Nc2ccc(OCCN3CCOCC3)c3ccccc23)cc1 [doramapimod]
In short: as §1

ispinesib = compound: Cc1ccc(C(=O)N(CCCN)[C@@H](c2nc3cc(Cl)ccc3c(=O)n2Cc2ccccc2)C(C)C)cc1 [ispinesib]
In short: as §1

bafetinib = compound: Cc1ccc(NC(=O)c2ccc(CN3CC[C@H](N(C)C)C3)c(C(F)(F)F)c2)cc1Nc1nccc(-c2cncnc2)n1 [bafetinib]
In short: as §1

[5] = compound: Cc1cccc(CC(=O)N2CCc3c2ccc(-c2cn(C)c4ncnc(N)c24)c3F)n1
In short: as §1

nilotinib = compound: Cc1cn(-c2cc(NC(=O)c3ccc(C)c(Nc4nccc(-c5cccnc5)n4)c3)cc(C(F)(F)F)c2)cn1 [nilotinib]
In short: as §1

[6] = compound: Cc1nc(Nc2n[nH]c3c2CN(C(=O)N[C@H](CN(C)C)c2ccccc2)C3(C)C)c2sccc2n1
In short: as §1

dasatinib = compound: Cc1nc(Nc2ncc(C(=O)Nc3c(C)cccc3Cl)s2)cc(N2CCN(CCO)CC2)n1 [dasatinib]
In short: as §1

[7] = compound: Cc1ncc(-c2ccnc(Nc3ccc(S(C)(=O)=O)cc3)n2)n1C(C)C
In short: as §1

[8] = compound: Cn1cc(-c2ccc3c(c2)CCN3C(=O)Cc2cccc(C(F)(F)F)c2)c2c(N)ncnc21
In short: as §1

[9] = compound: Cn1cc(-c2ccc3nnc(C(F)(F)c4ccc5ncccc5c4)n3n2)cn1
In short: as §1

tipifarnib = compound: Cn1cncc1[C@@](N)(c1ccc(Cl)cc1)c1ccc2c(c1)c(-c1cccc(Cl)c1)cc(=O)n2C [tipifarnib]
In short: as §1

mubritinib = compound: FC(F)(F)c1ccc(/C=C/c2nc(COc3ccc(CCCCn4ccnn4)cc3)co2)cc1 [mubritinib]
In short: as §1

Measured: log2 fold change

NAA20 (UniProt P61599)
inactive: [1] 0.052 | crizotinib -0.05 | [2] 0.187 | [3] -0.002 | duvelisib 0.045 | gandotinib -0.077 | tozasertib 0.018 | [4] 0.024 | doramapimod 0.047 | ispinesib 0.076 | bafetinib -0.012 | [5] -0.006 | nilotinib 0.022 | [6] 0.009 | dasatinib -0.002 | [7] -0.015 | [8] 0.182 | [9] 0.046 | tipifarnib 0.016 | mubritinib -0.056

NCR3LG1 (UniProt Q68D85)
inactive: [1] 0.064 | crizotinib 0.047 | [2] -0.071 | [3] -0.049 | duvelisib 0.031 | gandotinib -0.168 | tozasertib -0.035 | [4] 0.076 | doramapimod 0.032 | ispinesib 0.072 | bafetinib -0.009 | [5] -0.09 | nilotinib -0.002 | [6] -0.078 | dasatinib -0.09 | [7] -0.055 | [8] -0.038 | [9] -0.024 | tipifarnib 0.019 | mubritinib -0.007

NDUFA10 (UniProt O95299)
inactive: [1] 0.022 | crizotinib -0.047 | [2] 0.062 | [3] 0.035 | duvelisib 0.024 | gandotinib -0.134 | tozasertib -0.043 | [4] 0.022 | doramapimod -0.045 | ispinesib -0.122 | bafetinib -0.045 | [5] 0.138 | nilotinib -0.115 | [6] -0.017 | dasatinib -0.183 | [7] -0.011 | [8] 0.039 | [9] 0.037 | tipifarnib -0.069 | mubritinib 0.185

NACA (UniProt E9PAV3)
inactive: [1] -0.032 | crizotinib 0.003 | [2] -0.084 | [3] 0.04 | duvelisib -0.04 | gandotinib 0.036 | tozasertib -0.01 | [4] -0.074 | doramapimod -0.008 | ispinesib 0.013 | bafetinib -0.05 | [5] -0.022 | nilotinib -0.011 | [6] 0.017 | dasatinib 0.045 | [7] -0.016 | [8] -0.054 | [9] 0.066 | tipifarnib -0.009 | mubritinib 0.014

NCK2 (UniProt O43639)
inactive: [1] 0.043 | crizotinib -0.12 | [2] 0.08 | [3] 0.205 | duvelisib 0.062 | gandotinib -0.09 | tozasertib -0.037 | [4] 0.197 | doramapimod -0.021 | ispinesib -0.208 | bafetinib 0.023 | [5] 0.114 | nilotinib -0.032 | [6] -0.271 | dasatinib -0.284 | [7] 0 | [8] 0.001 | [9] -0.216 | tipifarnib 0.194

N6AMT1 (UniProt Q9Y5N5)
inactive: [1] 0.006 | crizotinib 0.034 | [2] 0.083 | [3] -0.132 | duvelisib 0.085 | gandotinib -0.013 | tozasertib 0.038 | [4] -0.032 | doramapimod 0.082 | ispinesib 0.012 | bafetinib 0.026 | [5] 0.051 | nilotinib 0.004 | [6] 0.014 | dasatinib 0.013 | [7] 0.028 | [8] 0.05 | [9] 0.079 | tipifarnib 0.025 | mubritinib 0.053

Random excerpt: 2 entries already listed.
N6AMT1 (UniProt Q9Y5N5)
inactive: [1] 0.006 | crizotinib 0.034 | [2] 0.083 | [3] -0.132 | duvelisib 0.085 | gandotinib -0.013 | tozasertib 0.038 | [4] -0.032 | doramapimod 0.082 | ispinesib 0.012 | bafetinib 0.026 | [5] 0.051 | nilotinib 0.004 | [6] 0.014 | dasatinib 0.013 | [7] 0.028 | [8] 0.05 | [9] 0.079 | tipifarnib 0.025 | mubritinib 0.053

NCR3LG1 (UniProt Q68D85)
inactive: [1] 0.064 | crizotinib 0.047 | [2] -0.071 | [3] -0.049 | duvelisib 0.031 | gandotinib -0.168 | tozasertib -0.035 | [4] 0.076 | doramapimod 0.032 | ispinesib 0.072 | bafetinib -0.009 | [5] -0.09 | nilotinib -0.002 | [6] -0.078 | dasatinib -0.09 | [7] -0.055 | [8] -0.038 | [9] -0.024 | tipifarnib 0.019 | mubritinib -0.007

Continuation:

NCALD (UniProt P61601)
inactive: [1] -0.008 | crizotinib 0.021 | [2] 0.072 | [3] 0 | duvelisib 0.04 | gandotinib -0.031 | tozasertib 0.03 | [4] -0.021 | doramapimod 0.038 | ispinesib -0.024 | bafetinib -0.026 | [5] 0.079 | nilotinib 0.011 | [6] 0.046 | dasatinib -0.053 | [7] -0.014 | [8] -0.024 | [9] 0.021 | tipifarnib -0.026 | mubritinib 0.048

NDUFB9 (UniProt Q9Y6M9)
inactive: [1] -0.009 | crizotinib 0.04 | [2] 0.074 | [3] -0.037 | duvelisib 0.029 | gandotinib 0.093 | tozasertib -0.001 | [4] 0.036 | doramapimod -0.031 | ispinesib 0.097 | bafetinib -0.109 | [5] -0.035 | nilotinib 0.01 | [6] 0.007 | dasatinib -0.071 | [7] -0.023 | [8] 0.052 | [9] 0.051 | tipifarnib -0.035 | mubritinib 0.019

NDUFA5 (UniProt Q16718)
inactive: [1] 0.03 | crizotinib 0.04 | [2] 0.071 | [3] -0.083 | duvelisib 0.145 | gandotinib 0.043 | tozasertib 0.008 | [4] -0.008 | doramapimod 0.036 | ispinesib 0.066 | bafetinib -0.106 | [5] -0.005 | nilotinib 0.02 | [6] -0.017 | dasatinib 0.014 | [7] -0.064 | [8] 0.138 | [9] 0.246 | tipifarnib -0.099 | mubritinib 0.085

NAGA (UniProt P17050)
inactive: [1] -0.003 | crizotinib 0.049 | [2] 0.008 | [3] -0.081 | duvelisib 0.021 | gandotinib -0.039 | tozasertib -0.019 | [4] 0.002 | doramapimod -0.051 | ispinesib -0.125 | bafetinib -0.156 | [5] -0.034 | nilotinib -0.04 | [6] 0.016 | dasatinib 0.028 | [7] 0.002 | [8] 0.04 | [9] 0.022 | tipifarnib 0.072 | mubritinib 0.047

NDUFA2 (UniProt O43678)
inactive: [1] 0.018 | crizotinib 0.078 | [2] 0.2 | [3] -0.035 | duvelisib 0.065 | gandotinib 0.036 | tozasertib 0.01 | [4] 0.02 | doramapimod -0.006 | ispinesib -0.126 | bafetinib 0.083 | [5] 0.004 | nilotinib -0.031 | [6] 0.052 | dasatinib -0.018 | [7] -0.039 | [8] 0.085 | [9] -0.047 | tipifarnib -0.11 | mubritinib 0.148

NCBP2 (UniProt P52298)
inactive: [1] 0.031 | crizotinib 0.169 | [2] 0.038 | [3] -0.019 | duvelisib 0.04 | gandotinib -0.013 | tozasertib -0.019 | [4] 0.052 | doramapimod -0.028 | ispinesib 0.005 | bafetinib -0.066 | [5] 0.056 | nilotinib -0.021 | [6] -0.017 | dasatinib -0.036 | [7] 0.075 | [8] 0.037 | [9] 0.026 | tipifarnib 0.031 | mubritinib -0.006

NCBP1 (UniProt Q09161)
inactive: [1] 0.009 | crizotinib 0.004 | [2] 0.119 | [3] -0.017 | duvelisib 0.03 | gandotinib -0.01 | tozasertib 0.006 | [4] 0.009 | doramapimod -0.028 | ispinesib 0.003 | bafetinib -0.031 | [5] 0.003 | nilotinib -0.036 | [6] 0.016 | dasatinib -0.002 | [7] 0.074 | [8] -0.012 | [9] -0.034 | tipifarnib -0.02 | mubritinib -0.008

NDUFS2 (UniProt O75306)
inactive: [1] -0.054 | crizotinib -0.075 | [2] 0.085 | [3] -0.088 | duvelisib 0.026 | gandotinib -0.108 | tozasertib 0.002 | [4] 0.012 | doramapimod 0.007 | ispinesib -0.04 | bafetinib -0.019 | [5] 0.018 | nilotinib 0.011 | [6] 0.002 | dasatinib -0.081 | [7] -0.028 | [8] 0.04 | [9] 0.026 | tipifarnib -0.018 | mubritinib 0.068

NADK (UniProt O95544)
inactive: [1] 0.001 | crizotinib 0.022 | [2] -0.027 | [3] -0.02 | duvelisib 0.063 | gandotinib -0.009 | tozasertib -0.029 | [4] -0.054 | doramapimod -0.002 | ispinesib 0.009 | bafetinib -0.033 | [5] -0.012 | nilotinib 0.018 | [6] -0.006 | dasatinib 0.049 | [7] -0.023 | [8] 0.03 | [9] 0.001 | tipifarnib 0.008 | mubritinib 0.031

NAA25 (UniProt Q14CX7)
inactive: [1] 0.062 | crizotinib -0.124 | [2] 0.111 | [3] -0.052 | duvelisib 0.005 | gandotinib -0.01 | tozasertib -0.011 | [4] 0.061 | doramapimod 0.015 | ispinesib 0.08 | bafetinib -0.029 | [5] 0.014 | nilotinib -0.021 | [6] -0.018 | dasatinib -0.056 | [7] -0.049 | [8] 0.111 | [9] 0.006 | tipifarnib -0.002 | mubritinib 0.004
